Test results as given in PMC5424492.
Results are given in words; binding and its absence hold for the method and conditions named. In cells and extracts the contact can be indirect. Some results given as binding are weak or reduced against the parent protein; the word gives no strength. For some assays here: Tags and fused reporters may be left off the sequences shown.

By UniProt entry, the sequences of proteins in these tests, tags left out.
UniProt O14980: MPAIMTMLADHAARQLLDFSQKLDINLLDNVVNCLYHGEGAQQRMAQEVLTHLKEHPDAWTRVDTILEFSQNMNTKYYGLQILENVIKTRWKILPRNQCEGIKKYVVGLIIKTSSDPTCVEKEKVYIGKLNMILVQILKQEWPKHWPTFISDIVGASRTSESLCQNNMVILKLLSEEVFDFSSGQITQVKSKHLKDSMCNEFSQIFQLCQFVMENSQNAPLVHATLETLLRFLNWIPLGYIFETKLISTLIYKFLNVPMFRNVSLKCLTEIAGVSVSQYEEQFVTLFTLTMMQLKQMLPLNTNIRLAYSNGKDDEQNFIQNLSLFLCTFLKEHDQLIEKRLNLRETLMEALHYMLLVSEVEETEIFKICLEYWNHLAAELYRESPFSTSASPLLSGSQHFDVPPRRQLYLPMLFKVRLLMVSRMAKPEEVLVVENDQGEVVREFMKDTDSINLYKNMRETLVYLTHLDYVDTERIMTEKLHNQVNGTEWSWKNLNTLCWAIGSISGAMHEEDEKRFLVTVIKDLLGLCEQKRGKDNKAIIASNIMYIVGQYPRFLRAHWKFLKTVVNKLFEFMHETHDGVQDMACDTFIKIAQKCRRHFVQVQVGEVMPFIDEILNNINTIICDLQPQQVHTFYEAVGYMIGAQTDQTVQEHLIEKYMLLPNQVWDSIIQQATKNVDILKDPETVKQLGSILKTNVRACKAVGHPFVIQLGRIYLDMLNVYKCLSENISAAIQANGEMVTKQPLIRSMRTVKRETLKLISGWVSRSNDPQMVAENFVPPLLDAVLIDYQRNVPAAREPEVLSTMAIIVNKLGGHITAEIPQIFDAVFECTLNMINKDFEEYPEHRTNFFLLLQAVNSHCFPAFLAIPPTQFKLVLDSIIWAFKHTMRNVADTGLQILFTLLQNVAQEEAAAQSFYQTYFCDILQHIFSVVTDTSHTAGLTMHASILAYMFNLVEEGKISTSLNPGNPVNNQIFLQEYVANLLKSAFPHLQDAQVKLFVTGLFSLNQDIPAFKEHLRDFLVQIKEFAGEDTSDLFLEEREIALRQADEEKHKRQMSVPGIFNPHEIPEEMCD
UniProt Q9HAV4: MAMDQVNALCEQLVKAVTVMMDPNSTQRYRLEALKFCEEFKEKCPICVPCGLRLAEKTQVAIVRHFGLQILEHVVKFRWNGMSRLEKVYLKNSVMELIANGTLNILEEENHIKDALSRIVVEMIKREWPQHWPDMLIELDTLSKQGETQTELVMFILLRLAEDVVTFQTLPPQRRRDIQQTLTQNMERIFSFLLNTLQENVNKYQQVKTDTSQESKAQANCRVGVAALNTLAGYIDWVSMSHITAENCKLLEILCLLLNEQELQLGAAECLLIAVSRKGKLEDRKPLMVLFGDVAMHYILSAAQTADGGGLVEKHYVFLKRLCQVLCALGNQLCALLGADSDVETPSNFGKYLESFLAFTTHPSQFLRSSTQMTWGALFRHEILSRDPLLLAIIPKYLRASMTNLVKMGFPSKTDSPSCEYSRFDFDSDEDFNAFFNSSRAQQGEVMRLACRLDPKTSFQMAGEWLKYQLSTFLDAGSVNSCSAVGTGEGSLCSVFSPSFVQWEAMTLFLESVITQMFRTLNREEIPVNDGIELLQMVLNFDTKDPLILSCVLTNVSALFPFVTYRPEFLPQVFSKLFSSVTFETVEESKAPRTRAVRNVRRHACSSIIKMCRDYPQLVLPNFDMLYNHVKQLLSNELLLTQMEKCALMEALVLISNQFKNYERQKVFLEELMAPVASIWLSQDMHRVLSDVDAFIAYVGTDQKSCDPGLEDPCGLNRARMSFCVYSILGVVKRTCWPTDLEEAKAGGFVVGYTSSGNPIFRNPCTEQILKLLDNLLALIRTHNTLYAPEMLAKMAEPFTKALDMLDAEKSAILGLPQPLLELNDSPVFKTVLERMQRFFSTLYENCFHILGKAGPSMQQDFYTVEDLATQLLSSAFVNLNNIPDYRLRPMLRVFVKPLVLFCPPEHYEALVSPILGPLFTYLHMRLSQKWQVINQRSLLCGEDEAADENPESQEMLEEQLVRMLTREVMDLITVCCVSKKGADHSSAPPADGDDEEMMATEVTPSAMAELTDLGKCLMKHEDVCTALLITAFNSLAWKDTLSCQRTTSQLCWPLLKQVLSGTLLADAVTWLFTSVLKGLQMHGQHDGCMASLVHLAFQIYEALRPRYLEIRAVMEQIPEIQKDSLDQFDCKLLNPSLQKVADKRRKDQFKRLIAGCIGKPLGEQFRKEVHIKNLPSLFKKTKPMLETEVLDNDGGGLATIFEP
UniProt P35611: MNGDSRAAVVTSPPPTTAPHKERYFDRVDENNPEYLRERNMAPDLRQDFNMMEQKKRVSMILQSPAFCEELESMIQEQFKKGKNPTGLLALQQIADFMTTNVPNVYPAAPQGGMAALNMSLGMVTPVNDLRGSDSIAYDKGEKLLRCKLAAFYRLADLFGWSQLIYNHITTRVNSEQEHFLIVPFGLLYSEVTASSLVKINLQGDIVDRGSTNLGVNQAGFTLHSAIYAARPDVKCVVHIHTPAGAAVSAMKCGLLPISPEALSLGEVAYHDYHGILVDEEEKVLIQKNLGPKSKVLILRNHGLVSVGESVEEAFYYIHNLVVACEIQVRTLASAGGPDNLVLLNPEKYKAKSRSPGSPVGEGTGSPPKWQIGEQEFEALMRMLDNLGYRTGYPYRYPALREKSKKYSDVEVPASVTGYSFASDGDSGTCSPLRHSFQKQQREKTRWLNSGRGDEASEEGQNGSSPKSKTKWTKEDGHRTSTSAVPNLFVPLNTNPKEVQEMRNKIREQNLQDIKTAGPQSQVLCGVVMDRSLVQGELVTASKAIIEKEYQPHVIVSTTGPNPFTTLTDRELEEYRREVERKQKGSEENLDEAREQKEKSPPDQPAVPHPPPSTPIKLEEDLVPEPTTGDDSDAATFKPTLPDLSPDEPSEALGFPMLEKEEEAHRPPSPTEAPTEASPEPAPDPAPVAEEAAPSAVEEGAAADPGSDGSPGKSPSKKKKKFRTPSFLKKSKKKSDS
UniProt P35612: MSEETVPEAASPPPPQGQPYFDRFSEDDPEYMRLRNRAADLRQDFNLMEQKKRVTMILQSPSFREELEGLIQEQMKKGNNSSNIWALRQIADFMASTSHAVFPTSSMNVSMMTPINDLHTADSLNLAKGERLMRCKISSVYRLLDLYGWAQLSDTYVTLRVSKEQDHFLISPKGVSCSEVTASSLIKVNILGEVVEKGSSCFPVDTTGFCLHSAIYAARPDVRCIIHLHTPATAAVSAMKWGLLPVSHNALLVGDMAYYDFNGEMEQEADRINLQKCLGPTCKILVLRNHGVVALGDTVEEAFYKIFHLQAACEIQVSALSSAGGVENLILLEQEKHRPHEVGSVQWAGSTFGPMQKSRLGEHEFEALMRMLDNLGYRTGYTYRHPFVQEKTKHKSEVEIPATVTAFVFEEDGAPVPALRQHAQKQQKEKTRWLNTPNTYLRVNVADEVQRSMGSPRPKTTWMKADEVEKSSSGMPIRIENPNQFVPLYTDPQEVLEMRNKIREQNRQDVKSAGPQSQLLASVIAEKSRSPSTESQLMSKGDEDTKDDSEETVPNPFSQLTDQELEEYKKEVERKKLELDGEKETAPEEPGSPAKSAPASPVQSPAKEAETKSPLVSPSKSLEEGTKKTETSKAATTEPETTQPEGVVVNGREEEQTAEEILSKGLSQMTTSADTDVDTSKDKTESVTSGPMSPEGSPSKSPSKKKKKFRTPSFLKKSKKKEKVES
UniProt Q9NQX6: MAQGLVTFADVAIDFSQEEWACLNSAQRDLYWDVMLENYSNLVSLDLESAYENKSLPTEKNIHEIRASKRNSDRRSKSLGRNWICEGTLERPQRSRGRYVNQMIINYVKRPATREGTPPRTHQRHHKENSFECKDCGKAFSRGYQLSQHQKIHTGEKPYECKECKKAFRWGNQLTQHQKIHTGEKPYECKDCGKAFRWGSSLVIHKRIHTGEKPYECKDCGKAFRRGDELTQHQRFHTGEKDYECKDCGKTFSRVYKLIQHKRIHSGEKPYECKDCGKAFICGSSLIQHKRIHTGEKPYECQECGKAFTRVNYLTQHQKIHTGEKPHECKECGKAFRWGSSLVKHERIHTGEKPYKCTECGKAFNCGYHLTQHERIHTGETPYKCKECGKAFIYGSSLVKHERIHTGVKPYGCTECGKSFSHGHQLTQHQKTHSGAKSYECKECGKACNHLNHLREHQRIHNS

Assays:
[1] = target: CRM1 (chromosomal maintenance 1, also known as exportin1) (human (endogenous in HEK293)) (UniProt O14980); experiment: co-IP; endogenous CRM1 or exportin5 immunoprecipitated with anti-CRM1 or anti-exportin5 (pre-immune serum as control) from lysates of HEK293 cells transiently expressing HA-ADD proteins, 1% NP-40 lysis buffer; immunoblot with anti-HA
[2] = target: exportin5 (human (endogenous in HEK293)) (UniProt Q9HAV4); experiment: as above
FLAG epitope-tagged ADD1 = FLAG epitope-tagged ADD1 (UniProt P35611); experiment: co-IP; lysates of HeLa and A431 cells stably expressing FLAG-ADD1; pre-immune serum (IgG) as control; which partner was precipitated is not given

| binding [1] | binding [2] | binding (FLAG epitope-tagged ADD1) | Molecule |
| --- | --- | --- | --- |
| binds | binds | – | HA epitope tagged-ADD2 (adducin 2, β isoform), expressed in HEK293 cells (from UniProt P35612 1-726) |
| – | – | binds | zinc-finger protein 331 (from UniProt Q9NQX6 1-463) |
| binds | – | – | HA epitope tagged-ADD1 (adducin 1, α isoform), expressed in HEK293 cells (from UniProt P35611 1-737) |
| binds | – | – | HA epitope tagged-ADD3 (adducin 3, γ isoform), expressed in HEK293 cells (protein, UniProt Q9UEY8 1-706) MSSDASQGVITTPPPPSMPHKERYFDRINENDPEYIRERNMSPDLRQDFNMMEQRKRVTQILQSPAFREDLECLIQEQMKKGHNPTGLLALQQIADYIMANSFSGFSSPPLSLGMVTPINDLPGADTSSYVKGEKLTRCKLASLYRLVDLFGWAHLANTYISVRISKEQDHIIIIPRGLSFSEATASNLVKVNIIGEVVDQGSTNLKIDHTGFSPHAAIYSTRPDVKCVIHIHTLATAAVSSMKCGILPISQESLLLGDVAYYDYQGSLEEQEERIQLQKVLGPSCKVLVLRNHGVVALGETLEEAFHYIFNVQLACEIQVQALAGAGGVDNLHVLDFQKYKAFTYTVAASGGGGVNMGSHQKWKVGEIEFEGLMRTLDNLGYRTGYAYRHPLIREKPRHKSDVEIPATVTAFSFEDDTVPLSPLKYMAQRQQREKTRWLNSPNTYMKVNVPEESRNGETSPRTKITWMKAEDSSKVSGGTPIKIEDPNQFVPLNTNPNEVLEKRNKIREQNRYDLKTAGPQSQLLAGIVVDKPPSTMQFEDDDHGPPAPPNPFSHLTEGELEEYKRTIERKQQGLEDAEQELLSDDASSVSQIQSQTQSPQNVPEKLEENHELFSKSFISMEVPVMVVNGKDDMHDVEDELAKRVSRLSTSTTIENIEITIKSPEKIEEVLSPEGSPSKSPSKKKKKFRTPSFLKKNKKKEKVEA |
